Test results reported in US20210032312A1.
Positions count from the first letter of the chain named. No constants are given. Whether binding was seen depends on the method and setting. Some binding calls cover weakened binding; strength is not graded here.

The chains behind the UniProt entries cited, without tags or fusion partners. Residues count along the entry.
UniProt P01732, residues 22-182: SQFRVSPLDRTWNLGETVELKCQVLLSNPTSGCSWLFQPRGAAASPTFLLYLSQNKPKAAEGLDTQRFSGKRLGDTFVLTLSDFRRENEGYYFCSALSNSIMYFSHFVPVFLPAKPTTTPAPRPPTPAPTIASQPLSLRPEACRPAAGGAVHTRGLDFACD

B1: P283FR9P1366_C3 (designed binder)
chain: LPAPKNLVVSRVTEDSARLSWTAPDAAFDSFKIAYPEWPDGGEAIVLTVPGSERSYDLTGLKPGTEYFVIIYGVKGGILSPPLSAIFTT
B2: P283FR9P1366_C4 (designed binder)
chain: B1 chain with K32N, D40V, G41R, F68W, Y72I, I78E, L79D, P81W
B3: P283FR9P1366_C6 (designed binder)
chain: B1 chain with K32S, D40V, G41Y, I70V, I78N, L79Y, P81D
B4: P283FR9P1366_D12 (designed binder)
chain: B1 chain with K32D, D40L, F68W, Y72L, I78D, L79Q, P81W
B5: P283FR9P1366_D6 (designed binder)
chain: LPAPKNLVVSRVTEDSARLSWTAPDAAFDSFNIFYPELVFPGEAIVLTVPGSERSYDLTGLKPGTEYWVNISGVKGGEHSWPLSAIFTT
B6: P283FR9P1366_D7 (designed binder)
chain: B1 chain with K32S, W38L, D40V, G41K, I70V, Y72W, I78T, L79Y, P81G
B7: P282BR9P1357_G9 (designed binder)
chain: LPAPKNLVVSRVTEDSARLSWPIASQIHSPFDSFLIQYQESEKVGEAIVLTVPGSERSYDLTGLKPGTEYTVSIYGVDVKYDIDSRPISSNPLSAIFTT
B8: P283FR9P1366_D8 (designed binder)
chain: B1 chain with K32E, W38I, D40I, G41A, I78D, L79W, P81D
B9: P283FR9P1366_E11 (designed binder)
chain: B1 chain with K32D, D40V, G41P, F68W, Y72K, I78N, L79I, P81W
B10: P283FR9P1366_F5 (designed binder)
chain: B1 chain with K32D, A34G, D40I, G41K, F68W, Y72W, I78D, L79R, P81E
B11: P283FR9P1366_F8 (designed binder)
chain: B1 chain with K32A, W38I, P39A, D40K, G41W, I78V, L79H, P81F
B12: P283FR9P1366_F9 (designed binder)
chain: B5 chain with N32H, V39P, F40I, P41A, E78Y, H79E
B13: P283FR9P1366_G1 (designed binder)
chain: B1 chain with K32Y, A34S, W38L, D40V, G41E, F68W, Y72W, I78A, L79T, P81E
B14: P283FR9P1366_G5 (designed binder)
chain: B1 chain with K32Q, W38Y, D40A, G41L, Y72I, I78D, L79E, P81F
B15: P283FR9P1366_G8 (designed binder)
chain: B1 chain with K32D, W38L, D40I, I70V, L79H, P81A
B16: P283FR9P1366_H10 (designed binder)
chain: B1 chain with K32N, D40P, G41E, I70V, I78H, P81D
B17: P283FR9P1366_H11 (designed binder)
chain: LPAPKNLVVSRVTEDSARLSWTAPDAAFDSFQIQYLETAPDGEAIVLTVPGSERSYDLTGLKPGTEYYVWIPGVKGGAFSPLSAIFTT
B18: P282BR9P1357_H3 (designed binder)
chain: LPAPKNLVVSRVTEDSARLSWKKREYQDPGFDSFLIQYQESEKVGEAIVLTVPGSERSYDLTGLKPGTEYTVSIYGVDVKWEGNRPVASNPLSAIFTT
B19: P283FR9P1366_H3 (designed binder)
chain: B1 chain with K32A, D40I, G41K, F68W, I70V, I78V, L79F, P81E
B20: P283FR9P1366_H5 (designed binder)
chain: LPAPKNLVVSRVTEDSARLSWTAPDAAFDSFIYIENKVNGEAIVLTVPGSERSYDLTGLKPGTEYHVTIGGVKGGTESNTLSAIFTT
B21: P283FR9P1366_H6 (designed binder)
chain: B1 chain with K32D, D40V, G41T, F68W, Y72F, I78E, L79R, P81W
B22: P283FR9P1366_H7 (designed binder)
chain: B1 chain with K32Q, W38Y, D40A, G41L, Y72A, L79Q, P81W
B23: P283FR9P1366_H8 (designed binder)
chain: B1 chain with K32Y, A34S, D40G, G41S, F68A, I70F, Y72W, G73C, I78W, P81D
B24: P283FR9P1366_H9 (designed binder)
chain: B1 chain with K32E, D40V, G41N, F68W, I70V, Y72W, I78V, L79N, P81Y
B25: P283GR7P1367_A11 (designed binder)
chain: B1 chain with K32D, D40T, G41D, I78S, L79Y, P81E
B26: P283GR7P1367_B4 (designed binder)
chain: LPAPKNLVVSRVTEDSARLSWTAPDAAFDSFSILYYELPPSGEAIVLTVPGSERSYDLTGLKPGTEYTVSIFGVKGGDNSFPLSAIFTT
B27: P283GR7P1367_B7 (designed binder)
chain: B1 chain with K32D, D40T, G41D, I70V, I78H, L79W, P81Y
B28: P283GR7P1367_B9 (designed binder)
chain: LPAPKNLVVSRVTEDSARLSWTAPDAAFDSFEIWYHEYHPRGEAIVLTVPSSERSYDLTGLKPGTEYDVVISGVKGGHWSYPLSAIFTT
B29: P282CR9P1358_C2 (designed binder)
chain: B1 chain with D40S, G41N, F68A, I70F, Y72W, I78A, L79F, P81N
B30: P283GR7P1367_C9 (designed binder)
chain: B1 chain with K32L, A34G, D40L, F68W, I78E, L79Y, P81D
B31: P283GR7P1367_E5 (designed binder)
chain: B28 chain with S51G
B32: P283GR7P1367_F5 (designed binder)
chain: B1 chain with K32D, D40T, G41D, I78A, P81R
B33: P283GR7P1367_G8 (designed binder)
chain: LPAPKNLVVSRVTEDSARLSWTAPDAAFDSFYIAYPEYVWGGEATSLGEAIVLTVPGSERSYDLTGLKPGTEYFVVITGVKGGLGSYPLSAIFTT
B34: P283GR7P1367_H2 (designed binder)
chain: B1 chain with K32D, D40T, G41D, I70V, I78G, L79R, P81Y
B35: P283GR7P1367_H8 (designed binder)
chain: LPAPKNLVVSRVTEDSARLSWTAPDAAFDSFSINYWEEDPAGEAIVLTVPGSERSYDLTGLKPGTEYRVLIGGVKGGHGSLPLSAIFTT
B36: P283GR7P1367_H9 (designed binder)
chain: B1 chain with K32D, D40T, G41D, I70V, I78G, L79R, P81A
B37: P283HR7P1368_A10 (designed binder)
chain: LPAPKNLVVSRVTEDSARLSWTAPDAAFDSFWIFYLEPFPRGEAIPLEVPGSERSYDLTGLKPGTEYSVDIRGVKGGDHSDPLWAYFTT
B38: P283HR7P1368_B12 (designed binder)
chain: LPAPKNLVVSRVTEDSARLSWTAPDAAFDSFGIGYVEFTRAGEAISLSVPGSERSYDLTGLKPGTEYHVVIIGVKGGEPSHPLGAPFTT
B39: P283HR7P1368_C3 (designed binder)
chain: LPAPKNLVVSRVTEDSARLSWTAPDAAFDSFGIGYAEPAVTGEAISLSVPGSKRSYDLTGLKPGTEYWVVIIGVKGGINSYPLGASFTT
B40: P282CR9P1358_C5 (designed binder)
chain: B1 chain with K32L, G41S, F68A, I70F, Y72W, I78P, P81H
B41: P283HR7P1368_D1 (designed binder)
chain: B38 chain with G34S, V36Y, F38W, T39A, R40P, A41N, S46Q
B42: P283HR7P1368_D2 (designed binder)
chain: B39 chain with D29N, K53E
B43: P283HR7P1368_D4 (designed binder)
chain: LPAPKNLVVSRVTEDSARLSWTAPDAAFDSFAIWCVEPIPEGEAIPLFVPGSERSYDLTGLKPGTEYRVGIRGVKGGTFSSPLAAPFTT
B44: P283HR7P1368_F10 (designed binder)
chain: LPAPKNLVVSRVTEDSARLSWTAPDAAFDSFYIPYRESEFRGEAIALPVPGSERSYDLTGLKPGTKYRVIIIGVKGGEFSQPLGAIFTT
B45: P283HR7P1368_F6 (designed binder)
chain: B38 chain with V36I, F38W, T39V, R40H, A41R, S48H, H68V, V70A, I72V, H81T

Target: recombinant human CD8 alpha fused to Fc fragment of human IgG1 (human) (UniProt P01732)
Test: ELISA, biotinylated CD8W7 or CD8W13

Row | Binder | binding
1 | B1 | binds
2 | B2 | binds
3 | B3 | binds
4 | B4 | binds
5 | B5 | binds
6 | B6 | binds
7 | B7 | binds
8 | B8 | binds
9 | B9 | binds
10 | B10 | binds
11 | B11 | binds
12 | B12 | binds
13 | B13 | binds
14 | B14 | binds
15 | B15 | binds
16 | B16 | binds
17 | B17 | binds
18 | B18 | binds
19 | B19 | binds
20 | B20 | binds
21 | B21 | binds
22 | B22 | binds
23 | B23 | binds

Row | Binder | binding
24 | B24 | binds
25 | B25 | binds
26 | B26 | binds
27 | B27 | binds
28 | B28 | binds
29 | B29 | binds
30 | B30 | binds
31 | B31 | binds
32 | B32 | binds
33 | B33 | binds
34 | B34 | binds
35 | B35 | binds
36 | B36 | binds
37 | B37 | binds
38 | B38 | binds
39 | B39 | binds
40 | B40 | binds
41 | B41 | binds
42 | B42 | binds
43 | B43 | binds
44 | B44 | binds
45 | B45 | binds
